# Results of single-concentration screens

The chains behind the UniProt entries cited, without tags or fusion partners. Residues count along the entry.
UniProt Q4DA54, 1-478: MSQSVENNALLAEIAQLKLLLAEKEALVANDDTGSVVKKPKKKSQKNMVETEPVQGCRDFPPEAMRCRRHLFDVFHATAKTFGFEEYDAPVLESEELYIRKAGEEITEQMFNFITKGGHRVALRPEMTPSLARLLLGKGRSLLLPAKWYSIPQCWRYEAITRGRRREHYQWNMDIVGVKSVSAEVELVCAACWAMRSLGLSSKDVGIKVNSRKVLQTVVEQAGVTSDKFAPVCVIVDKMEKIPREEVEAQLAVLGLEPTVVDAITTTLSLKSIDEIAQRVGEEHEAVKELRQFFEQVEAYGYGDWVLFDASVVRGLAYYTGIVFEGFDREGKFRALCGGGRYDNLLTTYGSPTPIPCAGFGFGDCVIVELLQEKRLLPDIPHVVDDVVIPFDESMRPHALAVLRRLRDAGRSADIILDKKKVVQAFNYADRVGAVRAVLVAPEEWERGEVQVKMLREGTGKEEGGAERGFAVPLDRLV
UniProt P9WNZ1, whole entry: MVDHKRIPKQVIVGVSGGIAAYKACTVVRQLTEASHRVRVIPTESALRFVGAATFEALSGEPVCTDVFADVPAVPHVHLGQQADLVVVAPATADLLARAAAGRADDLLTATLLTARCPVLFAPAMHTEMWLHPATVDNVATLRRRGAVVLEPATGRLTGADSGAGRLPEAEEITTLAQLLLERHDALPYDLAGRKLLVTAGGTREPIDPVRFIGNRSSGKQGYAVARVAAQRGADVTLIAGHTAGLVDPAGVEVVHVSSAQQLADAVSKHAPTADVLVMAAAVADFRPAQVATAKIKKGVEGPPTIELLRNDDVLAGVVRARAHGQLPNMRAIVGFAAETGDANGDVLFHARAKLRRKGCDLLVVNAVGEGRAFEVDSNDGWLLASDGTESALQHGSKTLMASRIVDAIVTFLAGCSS
UniProt A4I591, 1-473: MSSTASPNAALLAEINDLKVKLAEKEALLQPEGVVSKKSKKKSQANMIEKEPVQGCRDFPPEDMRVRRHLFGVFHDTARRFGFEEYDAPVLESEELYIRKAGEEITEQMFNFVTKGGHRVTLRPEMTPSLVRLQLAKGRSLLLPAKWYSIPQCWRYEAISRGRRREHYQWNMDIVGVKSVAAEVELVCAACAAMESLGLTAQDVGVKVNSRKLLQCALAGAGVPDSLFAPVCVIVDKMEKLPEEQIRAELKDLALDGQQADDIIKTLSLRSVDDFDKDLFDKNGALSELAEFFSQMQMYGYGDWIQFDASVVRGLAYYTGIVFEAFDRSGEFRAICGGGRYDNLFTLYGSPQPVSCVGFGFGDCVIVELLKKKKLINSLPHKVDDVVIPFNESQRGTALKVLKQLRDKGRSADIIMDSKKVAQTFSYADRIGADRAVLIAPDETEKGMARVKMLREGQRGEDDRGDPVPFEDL

From ChEMBL document CHEMBL3988442, “University of Dundee, Small-Polar-MMV Screening Library” (2021).

TcHisRS: 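Histidine-tRNA ligase, Trypanosoma cruzi CL Brener (UniProt Q4DA54). Enzyme assay of histidyl-tRNA synthetase; the read-out is not stated. Compounds at 30 µM. The record gives no direction; compounds that gave an IC50 in retests scored well above the rest, so higher reads as stronger inhibition. Of about 69,000 compounds tested this way, about 31 (0.045%) reached 50% or more in at least one test.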
Leishmania in macrophages: 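Cell assay of Leishmania donovani living inside macrophages; the read-out is not stated. Concentration: 30 µM. Direction is inferred from retests: higher values go with stronger inhibition. Size under these conditions: about 69,000 compounds, about 1,000 of them at 50% or above in at least one test.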
Toxoplasma: 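Assay of Toxoplasma gondii numbers, read through their beta-galactosidase reporter with a colour substrate. Concentration: 10 µM. Higher reads as fewer parasites (inferred from which compounds were picked for retests). Of about 67,000 compounds tested this way, about 260 (0.38%) reached 50% or more in at least one test.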
CoaBC: 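Coenzyme A biosynthesis protein CoaBC, Mycobacterium tuberculosis (UniProt P9WNZ1). Enzyme assay of CoaBC with a phosphate dye (Biomol Green) read at 650 nm. Concentration: 30 µM. Higher reads as stronger inhibition, judged from the few compounds that gave an IC50. Most strong results did not repeat in a second test. Size under these conditions: about 67,000 compounds, about 40 of them at 50% or above in at least one test.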
LiHisRS: 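Enzyme assay of histidyl-tRNA synthetase; the read-out is not stated. Target: Histidine-tRNA ligase, Leishmania infantum (UniProt A4I591). Concentration: 30 µM. Higher reads as stronger inhibition (inferred: compounds with an IC50 in retests scored well above the rest). The assay is labelled LdHisRS but filed under L. infantum. About 69,000 compounds were tested under these conditions; 0.6% (about 410) showed 50% or more at least once.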

The filed quantity is “Percent Effect” (%).
The controls that fix the scale are not given in the record; negative values are as filed.
This is an unselected part of the compounds tested.
Two or more numbers in one place are separate tests of the same structure; such repeats can differ widely.
A dash means the value is not listed here; it may have been measured.

Compound | TcHisRS | Leishmania in macrophages | Toxoplasma | CoaBC | LiHisRS
Cc1ocnc1C(=O)N1CCCC1c1ccc(C(=O)N2CCSCC2)s1 (stereo not given) | -2.591 | 10.68 | -0.2742 | 1.459 | 6.452
[H][C@@]12CCN(Cc3cc(C)on3)C[C@@]1([H])O[C@@H](c1nnc(C)[nH]1)C2 | - | 19.71 | 2.219 | - | -
Cc1nc(CN(C)C2CCN(CC3CCCC3)C2)no1 (stereo not given) | 2.312 | 22.96 | -9.458 | 4.215 | 13.39
O=C(CCc1nccs1)N1CCN(c2ccccn2)CC1 | 1.458 | -12.67 | -9.085 | -3.916 | 2.655
c1cnc(N2CCCC(c3cncc(-n4ccnc4)n3)C2)nc1 (stereo not given) | 12.09 | -21.16 and -4.098 | -18.7 | -0.2427 | 15.94
CNC(=O)c1cc2c(nc1NCC(C)C)CCN(CCOC)CC2 | 6.522 | - | - | -5.14 | 14.47
CC(C)NC(=O)CS(=O)(=O)Cc1coc(-c2ccc(F)cc2)n1 | 4.103 | 7.483 | 16.36 | 2.985 | 14.29
CC(=O)N1CCN(C(=O)CCCc2nnc(-c3ccccc3)o2)CC1 | -2.882 | 28.66 | 8.851 | -3.864 | 5.357
CN(C)Cc1cnn(-c2ccccc2C(=O)NCCC2CCCN2C)c1 (stereo not given) | 2.825 | -25.66 | 2.219 | 12.11 | 4.196
CCC1CN(CC(=O)NCCN2CCCC2)c2ccccc2S1 (stereo not given) | 11.88 | 0.3655 | 8.76 | 2.3 | 31.52
COCCN(C)S(=O)(=O)c1cc(C)cc(F)c1 | -2.02 | -19.04 | 6.667 | 3.241 | 14.29
O=C1CCCN1Cc1nnc2n1CCN(Cc1ccco1)C2 | 7.778 | 14.17 | 2.529 | 0.7317 | 13.21
COCCN1CCN(S(C)(=O)=O)Cc2ccc(C)nc21.O=C(O)C(F)(F)F | - | -3.333 | -11 | - | -
[H][C@]12CC[C@]([H])(CN(Cc3cccnc3)C1)N(C(=O)CC1CCCCC1)C2 | - | 21.55 | 5.591 | - | -
COc1cnc(N2CCCN(c3ccc(F)cc3)CC2)nc1 | 12.35 | -0.5945 | -8.14 | -2.948 | 2.151
Cn1ccc(C(=O)N2CCOC(c3ccc(C(N)=O)cn3)C2)n1 (stereo not given) | 10.64 | 2.032 | -18.39 | 1.961 | 11.46
Cc1c(C)n(CC(O)CN2CCN(CCO)CC2)c2c(Cl)cccc12 (stereo not given) | 1.463 | - | - | -0.6274 | 11.86
O=S(=O)(NCCC(O)c1cccs1)c1ccccc1 (stereo not given) | 3.093 | 4.007 and 2.48 | 0.7722 | -2.748 | 10.43
CC(C)C(=O)Nc1ncn(Cc2cccc(Br)c2)n1 | 5.056 | 26.25 | 2.798 | 2.616 | 17.95
CC1=C[C@@H](CN2CCN(C)CC2)[C@H](C(C)C)C[C@H]1Cc1nnc(C)o1 | 0.4975 | 5.859 | 18.86 | 11.2 | 24.32
Cn1cc(-c2cnc3n2CCC32CCN(S(=O)(=O)C3CC3)CC2)cn1.O=C(O)C(F)(F)F | - | -39.95 | 7.489 | - | -
[H][C@@]12CN(Cc3ccccc3OC)CC[C@]1([H])N(C(C)=O)C[C@H]2c1ccsc1 | - | -3.19 and -3.651 | 16.69 | - | -
[H][C@]12CC[C@](C(=O)N3CCC(n4cc(CCO)nn4)CC3)(C1)C(=C)C2(C)C | - | -2.137 | -11.15 | - | -
[H][C@@]12CN(c3nccs3)C[C@]1([H])N(Cc1ccccc1OC)C(=O)O2 | - | -0.3968 | -4.405 | - | -
O=c1[nH]nc2c(N3CCCCCC3)nccn12 | -0.5917 | 14.65 | -0.5117 | 4.737 | 11.03
O=C(O)C(F)(F)F.[H][C@@]12CN(Cc3ccc4c(c3)OCO4)C[C@@H](C(=O)NC(C)C)[C@]1([H])CCO2 | - | 0.7137 | -46.92 | - | -
[H][C@@]12C[C@@H](OCc3cccnc3)CN1CCN(C(=O)c1cscn1)C2 | - | 7.304 | -1.387 | - | -
CC(=O)N[C@@H]1CN(Cc2ccco2)C[C@H]1c1ccc(C)o1 | 2.128 | 11.31 | -11.86 | 0.2049 | 12.86
COc1ccc(NC(=O)CNc2ccc(Br)cc2F)cc1 | -6.522 | 20.58 | 0.7541 | -1.484 | -2.857
O=C(CSCc1ccccn1)N(Cc1ccsc1)C1CC1 | 12.85 | -4.625 | -6.152 | -3.226 | 2.632
Cn1cc(CN2CCC3(C2)CN(Cc2ccsc2)C3)cn1.O=C(O)C(F)(F)F.O=C(O)C(F)(F)F | - | 18.15 | 6.464 | - | -
CNC(=O)CN1CCc2c(CNc3nccs3)n[nH]c2C1.O=C(O)C(F)(F)F | - | 8.141 | 0.5753 | - | -
Cn1cc(CN2CC[C@]3(C[C@H](Oc4ccccn4)CO3)C2)cn1 | 6.145 | - | - | 1.576 | 15.38
Cc1ccc(CNC2CCCc3c2cnn3C)s1.Cl (stereo not given) | - | 26.61 | -3.485 | - | -
O=C(CN1CCc2ccccc21)Nc1ccc(OC(F)F)cc1 | 1.626 | 23.89 | -2.85 | 0.8439 | 4.808
CN(C)C(=O)c1noc2c1CN(C(=O)CCCN1CCCCC1)CC2 | 0 | -27.23 | 7.336 | -0.7712 | 0
O=C(NCc1ccc(N2CCCC2)nc1)N1CCc2sccc2C1 | 2.174 | -13.9 | -1.674 | 15.52 | 24.24
Cc1cnn(CC2CCCCN2Cc2nnsc2Cl)c1 (stereo not given) | 10.29 | 13.73 | -4.354 | 2.1 | 16.95
Cc1cc(CN2CCN(C(=O)NCc3cccs3)CC2)on1 | 1.734 | 19.09 | -4.371 | 2.738 | 13.16
N#Cc1c(SCCN2CCOCC2)sc2c(O)cc(O)nc12 | 2.312 | 2.489 | 28 | -3.067 | 22.68
Cc1cnn(CC2CCCN2C(=O)c2cc(O)nc3ccccc23)c1 (stereo not given) | 2.624 | 8.16 | -2.213 | 3.394 | -25.66
CC(C)C(=O)N1CCC2(CC1)NC(=O)c1ccccc12 | 5.063 | - | - | - | 12.07
COc1ncnc2c1CCN(C(=O)NCc1cccnc1)CC2.O=C(O)C(F)(F)F | - | -6.851 | 0.338 | - | -
CC1CCCCN1C(=O)COc1nc(Cc2ccc(F)cc2)no1 (stereo not given) | 6.878 | 1.055 | 0.7581 | 0.1988 | 1.333
CCn1ncc2c1CCCC2NCc1ccc2c(c1)OCCO2 (stereo not given) | 7.895 | 16.13 | 6.334 | 3.353 | 19.64
Cn1c(NC(=O)CNC(=O)C2CC2)nc2cc(Cl)ccc21 | 0.5435 | -4.205 | 1.006 | -4.132 | 0
Cc1ccnc2c1NC(=O)CN2C(=O)CCc1cccs1 | 0 | 10.28 | -5.175 | 1.843 | 18.6